# These are yes or no findings as the source states them, for the method shown. In cells and extracts the contact can be indirect. Some entries that bind do so weakly or less than the wild type.
# Assays:
# [1] = target: T1, carrier-free recombinant human VISTA (V-domain immunoglobulin-containing suppressor of T cell activation) (human) (UniProt Q9H7M9); test: co-IP; ELISA plates coated with anti-PD-L1 or anti-VISTA capture antibody, 4 ng recombinant PD-L1 or VISTA immobilised on them; Jurkat T cell lysate loaded, 2 h at room temperature, washed with TBST, extracted with glycine-HCl pH 2.0, Western blot of PD-1; only the target purified
# T1 sequence: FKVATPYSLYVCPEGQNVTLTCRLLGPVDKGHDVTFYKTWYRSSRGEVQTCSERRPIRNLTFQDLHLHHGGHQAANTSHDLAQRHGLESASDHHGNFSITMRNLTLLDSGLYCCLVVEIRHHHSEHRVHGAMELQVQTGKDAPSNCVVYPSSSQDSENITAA
# [2] = target: T2, VISTA expressed by Jurkat T cells (human (endogenous in Jurkat)) (UniProt Q9H7M9); test: co-IP; control wells: ELISA plates coated with anti-PD-L1 or anti-VISTA capture antibody, no recombinant protein; Jurkat T cell lysate loaded, 2 h at room temperature, extracted with glycine-HCl pH 2.0, Western blot of PD-1
# T2 sequence: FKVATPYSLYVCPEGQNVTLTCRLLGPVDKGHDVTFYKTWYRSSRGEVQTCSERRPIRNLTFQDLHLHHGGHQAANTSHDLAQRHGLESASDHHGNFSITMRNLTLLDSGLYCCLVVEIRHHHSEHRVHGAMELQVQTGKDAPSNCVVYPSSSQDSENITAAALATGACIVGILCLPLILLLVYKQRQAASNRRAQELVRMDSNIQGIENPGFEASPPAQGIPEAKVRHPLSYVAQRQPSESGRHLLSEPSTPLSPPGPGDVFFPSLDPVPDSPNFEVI
substance,measurement,setting,value
PD-1 of Jurkat T cells (programmed cell death protein 1) (from UniProt Q15116 25-288) (receptor),binding,[1],binds
same,binding,[2],binds weakly
